Experimental data taken from publication PMC12218935, “Opposing role of phagocytic receptors MERTK and AXL in Progranulin deficient FTD” (Communications Biology, 2025).
Results are given in words; binding and its absence hold for the method and conditions named. For some assays here: Where a sequence is shown, tags or fusion partners need not be part of it.

Sequences of proteins named here, by UniProt entry; tags and fusion partners are left off. A change or cut given only in a name is not applied to a line headed by its entry. Residues count along the entry.
UniProt P30530, residues 26-451: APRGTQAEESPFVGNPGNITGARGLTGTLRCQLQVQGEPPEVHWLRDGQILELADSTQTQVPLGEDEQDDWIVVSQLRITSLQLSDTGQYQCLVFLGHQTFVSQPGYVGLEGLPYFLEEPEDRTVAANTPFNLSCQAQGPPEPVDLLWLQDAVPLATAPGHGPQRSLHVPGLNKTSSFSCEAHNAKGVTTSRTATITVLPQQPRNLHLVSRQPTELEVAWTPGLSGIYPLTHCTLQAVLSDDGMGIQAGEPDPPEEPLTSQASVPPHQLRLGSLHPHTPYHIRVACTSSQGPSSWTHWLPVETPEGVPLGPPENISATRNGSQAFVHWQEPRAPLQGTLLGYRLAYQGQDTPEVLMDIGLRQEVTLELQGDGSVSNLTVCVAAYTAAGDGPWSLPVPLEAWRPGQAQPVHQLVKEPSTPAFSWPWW
UniProt P28799, residues 18-593: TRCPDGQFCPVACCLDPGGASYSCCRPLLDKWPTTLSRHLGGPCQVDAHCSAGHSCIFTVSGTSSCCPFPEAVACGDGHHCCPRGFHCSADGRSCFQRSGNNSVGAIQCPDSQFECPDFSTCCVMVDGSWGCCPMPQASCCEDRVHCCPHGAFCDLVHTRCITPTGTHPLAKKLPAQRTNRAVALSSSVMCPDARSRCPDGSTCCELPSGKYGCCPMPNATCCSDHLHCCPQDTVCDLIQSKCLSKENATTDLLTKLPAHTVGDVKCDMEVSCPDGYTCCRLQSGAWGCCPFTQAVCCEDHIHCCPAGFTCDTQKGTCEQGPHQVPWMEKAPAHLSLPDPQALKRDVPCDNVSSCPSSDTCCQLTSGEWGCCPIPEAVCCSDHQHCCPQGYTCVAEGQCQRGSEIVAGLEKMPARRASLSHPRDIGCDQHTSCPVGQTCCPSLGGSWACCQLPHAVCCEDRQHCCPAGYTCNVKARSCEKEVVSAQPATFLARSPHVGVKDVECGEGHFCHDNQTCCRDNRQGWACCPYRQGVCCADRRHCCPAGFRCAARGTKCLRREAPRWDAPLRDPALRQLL

Assays:
[1] = target: T1, Fc-Mer (MERTK Fc chimera) (human, UniProt Q12866 21-505); assay: SPR; Biacore T200, CM5 chip; Protein A amine-coupled (2300 RU), Fc-Mer (150 RU) or Fc-Axl (140 RU) captured; Gas6 or PGRN injected at 20 uL/min for 500 s, 1000 s dissociation; HBS-EP+ with 1.5 mM CaCl2 and 0.1% BSA; 1:1 kinetic model; both purified
T1 chain: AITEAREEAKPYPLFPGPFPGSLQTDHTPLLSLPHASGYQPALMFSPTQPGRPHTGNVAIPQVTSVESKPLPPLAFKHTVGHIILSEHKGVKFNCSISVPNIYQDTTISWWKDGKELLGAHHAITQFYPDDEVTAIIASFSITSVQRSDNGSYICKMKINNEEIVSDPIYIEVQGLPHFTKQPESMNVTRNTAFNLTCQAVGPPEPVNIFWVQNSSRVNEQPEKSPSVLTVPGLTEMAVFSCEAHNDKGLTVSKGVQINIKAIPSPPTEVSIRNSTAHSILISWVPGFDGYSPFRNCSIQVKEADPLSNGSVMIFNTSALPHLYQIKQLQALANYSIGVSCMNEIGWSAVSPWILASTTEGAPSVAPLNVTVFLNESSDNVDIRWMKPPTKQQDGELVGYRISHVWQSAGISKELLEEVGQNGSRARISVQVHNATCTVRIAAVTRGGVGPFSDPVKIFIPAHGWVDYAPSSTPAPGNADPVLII

[2] = target: Fc-Axl (AXL Fc chimera) (human) (UniProt P30530); assay: as above

“progranulin (PGRN), recombinant human (from UniProt P28799 18-593)” was tested. Which binding [1] did it give?
The binding was “no binding”.

What about the binding [2] of the same substance?
Its binding is “no binding”.
